Data as given in PubChem BioAssay AID1224828 (NIAID, 2016)

Screen: 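Find genes required for NF-kappaB p65 moving into the nucleus after LPS in mouse macrophages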 (primary screen)
Cell system: mouse RAW264.7 G9 macrophage reporter cells (GFP-p65, Tnf promoter-mCherry)
Reagents: siRNA pool against mouse genes, 100 nM
Duration: 2 days siRNA transfection, then 40 min LPS before fixation
Treatment: LPS (Salmonella minnesota R595) at 10 ng/ml
Read-out: 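Microscopy ratio of nuclear to perinuclear-ring GFP-p65 signal, scaled to the plate median; gene score is the average of two replicate robust z-scores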
Scale: p65 translocation robust z-score: higher = more nuclear NF-kappaB p65 after LPS than the plate median; nuclear/cytoplasmic p65 ratio: higher = more nuclear NF-kappaB p65
Hit rule: 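Called active when z exceeds 3.3 or falls under -1.56 (median of Tlr4 controls), giving activity score of at least 50; no calls for control wells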
Meaning of the calls: active = hit (p65 shift raised or lowered); inactive = no clear change
The whole screen tested about 17,000 reagents; shown is an unselected part. In the full data, 762 (4.5%) are marked active. 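Active calls include both raised and lowered p65 entry, mostly lowered; wells with fewer than 50 cells lack a z-score.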 The raw values are shown without normalisation. Reagent sequences are not shown.

{"gene knocked down":"Ppox","p65 translocation robust z-score":-0.22,"nuclear/cytoplasmic p65 ratio, rep 1":1.46,"nuclear/cytoplasmic p65 ratio, rep 2":1.39,"low cell count flag":"enough cells to score","Call":"inactive"}
{"gene knocked down":"Edn1","p65 translocation robust z-score":-0.09,"nuclear/cytoplasmic p65 ratio, rep 1":1.73,"nuclear/cytoplasmic p65 ratio, rep 2":1.34,"low cell count flag":"enough cells to score","Call":"inactive"}
{"gene knocked down":"Ergic3","nuclear/cytoplasmic p65 ratio, rep 1":1.35,"nuclear/cytoplasmic p65 ratio, rep 2":1.16,"low cell count flag":"fewer than 50 cells per well; well left out of scoring","Call":"inactive"}
{"gene knocked down":"Lzic","p65 translocation robust z-score":0.23,"nuclear/cytoplasmic p65 ratio, rep 1":1.87,"nuclear/cytoplasmic p65 ratio, rep 2":1.48,"low cell count flag":"enough cells to score","Call":"inactive"}
{"gene knocked down":"Slc6a4","p65 translocation robust z-score":-0.74,"nuclear/cytoplasmic p65 ratio, rep 1":1.37,"nuclear/cytoplasmic p65 ratio, rep 2":1.46,"low cell count flag":"enough cells to score","Call":"inactive"}
{"gene knocked down":"BC002059","p65 translocation robust z-score":-1.24,"nuclear/cytoplasmic p65 ratio, rep 1":1.31,"nuclear/cytoplasmic p65 ratio, rep 2":1.72,"low cell count flag":"enough cells to score","Call":"inactive"}
{"gene knocked down":"Dffa","p65 translocation robust z-score":2.1,"nuclear/cytoplasmic p65 ratio, rep 1":1.71,"nuclear/cytoplasmic p65 ratio, rep 2":1.7,"low cell count flag":"enough cells to score","Call":"inactive"}
{"gene knocked down":"Dclk1","p65 translocation robust z-score":-0.84,"nuclear/cytoplasmic p65 ratio, rep 1":1.52,"nuclear/cytoplasmic p65 ratio, rep 2":1.31,"low cell count flag":"enough cells to score","Call":"inactive"}
{"gene knocked down":"Eef2","p65 translocation robust z-score":0.37,"nuclear/cytoplasmic p65 ratio, rep 1":1.57,"nuclear/cytoplasmic p65 ratio, rep 2":1.36,"low cell count flag":"enough cells to score","Call":"inactive"}
{"gene knocked down":"D630023F18Rik","p65 translocation robust z-score":-1.01,"nuclear/cytoplasmic p65 ratio, rep 1":1.38,"nuclear/cytoplasmic p65 ratio, rep 2":1.44,"low cell count flag":"enough cells to score","Call":"inactive"}
{"gene knocked down":"Mybbp1a","p65 translocation robust z-score":-0.82,"nuclear/cytoplasmic p65 ratio, rep 1":1.29,"nuclear/cytoplasmic p65 ratio, rep 2":1.28,"low cell count flag":"enough cells to score","Call":"inactive"}
{"gene knocked down":"Chrnb2","p65 translocation robust z-score":-0.44,"nuclear/cytoplasmic p65 ratio, rep 1":1.46,"nuclear/cytoplasmic p65 ratio, rep 2":1.32,"low cell count flag":"enough cells to score","Call":"inactive"}
{"gene knocked down":"Tmem25","p65 translocation robust z-score":-0.87,"nuclear/cytoplasmic p65 ratio, rep 1":1.49,"nuclear/cytoplasmic p65 ratio, rep 2":1.3,"low cell count flag":"enough cells to score","Call":"inactive"}
{"gene knocked down":"Vmn1r183","nuclear/cytoplasmic p65 ratio, rep 1":1.32,"nuclear/cytoplasmic p65 ratio, rep 2":0.991,"low cell count flag":"fewer than 50 cells per well; well left out of scoring","Call":"inactive"}
{"gene knocked down":"Txlng","nuclear/cytoplasmic p65 ratio, rep 1":1.08,"nuclear/cytoplasmic p65 ratio, rep 2":1.07,"low cell count flag":"fewer than 50 cells per well; well left out of scoring","Call":"inactive"}
{"gene knocked down":"Fgf10","p65 translocation robust z-score":0.34,"nuclear/cytoplasmic p65 ratio, rep 1":1.46,"nuclear/cytoplasmic p65 ratio, rep 2":1.44,"low cell count flag":"enough cells to score","Call":"inactive"}
{"gene knocked down":"Or5m5","p65 translocation robust z-score":-0.23,"nuclear/cytoplasmic p65 ratio, rep 1":1.68,"nuclear/cytoplasmic p65 ratio, rep 2":1.49,"low cell count flag":"enough cells to score","Call":"inactive"}
{"gene knocked down":"Serpina1a","p65 translocation robust z-score":-0.19,"nuclear/cytoplasmic p65 ratio, rep 1":1.46,"nuclear/cytoplasmic p65 ratio, rep 2":1.6,"low cell count flag":"enough cells to score","Call":"inactive"}
{"gene knocked down":"Lhx8","p65 translocation robust z-score":0.74,"nuclear/cytoplasmic p65 ratio, rep 1":1.85,"nuclear/cytoplasmic p65 ratio, rep 2":1.45,"low cell count flag":"enough cells to score","Call":"inactive"}
{"gene knocked down":"Nup160","p65 translocation robust z-score":-1.12,"nuclear/cytoplasmic p65 ratio, rep 1":1.63,"nuclear/cytoplasmic p65 ratio, rep 2":1.29,"low cell count flag":"enough cells to score","Call":"inactive"}
{"gene knocked down":"Ntsr1","p65 translocation robust z-score":-0.57,"nuclear/cytoplasmic p65 ratio, rep 1":1.48,"nuclear/cytoplasmic p65 ratio, rep 2":1.45,"low cell count flag":"enough cells to score","Call":"inactive"}
{"gene knocked down":"Agpat4","p65 translocation robust z-score":-0.2,"nuclear/cytoplasmic p65 ratio, rep 1":1.58,"nuclear/cytoplasmic p65 ratio, rep 2":1.65,"low cell count flag":"enough cells to score","Call":"inactive"}
{"gene knocked down":"Tas2r139","p65 translocation robust z-score":0.53,"nuclear/cytoplasmic p65 ratio, rep 1":1.59,"nuclear/cytoplasmic p65 ratio, rep 2":1.21,"low cell count flag":"enough cells to score","Call":"inactive"}
{"gene knocked down":"Pdia6","p65 translocation robust z-score":0.39,"nuclear/cytoplasmic p65 ratio, rep 1":1.56,"nuclear/cytoplasmic p65 ratio, rep 2":1.56,"low cell count flag":"enough cells to score","Call":"inactive"}
{"gene knocked down":"Tmem135","nuclear/cytoplasmic p65 ratio, rep 1":1.26,"nuclear/cytoplasmic p65 ratio, rep 2":1.17,"low cell count flag":"fewer than 50 cells per well; well left out of scoring","Call":"inactive"}
{"gene knocked down":"Irf3","p65 translocation robust z-score":-1.1,"nuclear/cytoplasmic p65 ratio, rep 1":1.34,"nuclear/cytoplasmic p65 ratio, rep 2":1.23,"low cell count flag":"enough cells to score","Call":"inactive"}
{"gene knocked down":"Or7g33","p65 translocation robust z-score":-0.76,"nuclear/cytoplasmic p65 ratio, rep 1":1.34,"nuclear/cytoplasmic p65 ratio, rep 2":1.25,"low cell count flag":"enough cells to score","Call":"inactive"}

Reformatted: results already given
| gene knocked down | p65 translocation robust z-score | nuclear/cytoplasmic p65 ratio, rep 1 | nuclear/cytoplasmic p65 ratio, rep 2 | low cell count flag | Call |
| --- | --- | --- | --- | --- | --- |
| Fgf10 | 0.34 | 1.46 | 1.44 | enough cells to score | inactive |
| Or5m5 | -0.23 | 1.68 | 1.49 | enough cells to score | inactive |
| Serpina1a | -0.19 | 1.46 | 1.6 | enough cells to score | inactive |
| Lhx8 | 0.74 | 1.85 | 1.45 | enough cells to score | inactive |
